{
  "source": "paper PMC10030765",
  "binders": {"B1": {"name": "full-length human SLIT2 with MYC epitope (protein, UniProt O94813 31-1529)", "chain": "QCSCSGSTVDCHGLALRSVPRNIPRNTERLDLNGNNITRITKTDFAGLRHLRVLQLMENKISTIERGAFQDLKELERLRLNRNHLQLFPELLFLGTAKLYRLDLSENQIQAIPRKAFRGAVDIKNLQLDYNQISCIEDGAFRALRDLEVLTLNNNNITRLSVASFNHMPKLRTFRLHSNNLYCDCHLAWLSDWLRQRPRVGLYTQCMGPSHLRGHNVAEVQKREFVCSGHQSFMAPSCSVLHCPAACTCSNNIVDCRGKGLTEIPTNLPETITEIRLEQNTIKVIPPGAFSPYKKLRRIDLSNNQISELAPDAFQGLRSLNSLVLYGNKITELPKSLFEGLFSLQLLLLNANKINCLRVDAFQDLHNLNLLSLYDNKLQTIAKGTFSPLRAIQTMHLAQNPFICDCHLKWLADYLHTNPIETSGARCTSPRRLANKRIGQIKSKKFRCSAKEQYFIPGTEDYRSKLSGDCFADLACPEKCRCEGTTVDCSNQKLNKIPEHIPQYTAELRLNNNEFTVLEATGIFKKLPQLRKINFSNNKITDIEEGAFEGASGVNEILLTSNRLENVQHKMFKGLESLKTLMLRSNRITCVGNDSFIGLSSVRLLSLYDNQITTVAPGAFDTLHSLSTLNLLANPFNCNCYLAWLGEWLRKKRIVTGNPRCQKPYFLKEIPIQDVAIQDFTCDDGNDDNSCSPLSRCPTECTCLDTVVRCSNKGLKVLPKGIPRDVTELYLDGNQFTLVPKELSNYKHLTLIDLSNNRISTLSNQSFSNMTQLLTLILSYNRLRCIPPRTFDGLKSLRLLSLHGNDISVVPEGAFNDLSALSHLAIGANPLYCDCNMQWLSDWVKSEYKEPGIARCAGPGEMADKLLLTTPSKKFTCQGPVDVNILAKCNPCLSNPCKNDGTCNSDPVDFYRCTCPYGFKGQDCDVPIHACISNPCKHGGTCHLKEGEEDGFWCICADGFEGENCEVNVDDCEDNDCENNSTCVDGINNYTCLCPPEYTGELCEEKLDFCAQDLNPCQHDSKCILTPKGFKCDCTPGYVGEHCDIDFDDCQDNKCKNGAHCTDAVNGYTCICPEGYSGLFCEFSPPMVLPRTSPCDNFDCQNGAQCIVRINEPICQCLPGYQGEKCEKLVSVNFINKESYLQIPSAKVRPQTNITLQIATDEDSGILLYKGDKDHIAVELYRGRVRASYDTGSHPASAIYSVETINDGNFHIVELLALDQSLSLSVDGGNPKIITNLSKQSTLNFDSPLYVGGMPGKSNVASLRQAPGQNGTSFHGCIRNLYINSELQDFQKVPMQTGILPGCEPCHKKVCAHGTCQPSSQAGFTCECQEGWMGPLCDQRTNDPCLGNKCVHGTCLPINAFSYSCKCLEGHGGVLCDEEEDLFNPCQAIKCKHGKCRLSGLGQPYCECSSGYTGDSCDREISCRGERIRDYYQKQQGYAACQTTKKVSRLECRGGCAGGQCCGPLRSKRRKYSFECTDGSSFVDEVEKVVKCGCTRCVS"}},
  "target": "3xFLAG tagged first two domains of Ccn2/Ctgf (rat)",
  "assay": "co-IP; CHO cells co-transfected with SLIT2:MYC and 3xFLAG tagged Ccn2/Ctgf or mutants; conditioned media in 1x TBS, M2 antibody-conjugated agarose 16 h; immunoblot for SLIT2 (MYC Ab in the legend)",
  "note": "No constants are given. Whether binding was seen depends on the method and setting. In cells and extracts the contact can be indirect. A result given as binding can be weak or reduced; the word gives no strength. Sequences can lack the tags named with a protein.",
  "data": [
    {"binder": "B1", "values": [
      {"measurement": "binding", "result": "binds weakly"}
    ]}
  ]
}
